# Results taken from the supplement of paper PMC8728848.
# The other results are listed elsewhere or left out.
# B1: PGP3 (Chlamydia trachomatis), P0CE18 (protein)
# chain: MGNSGFYLYNTQNCVFADNIKVGQMTEPLKDQQIILGTTSTPVAAKMTASDGISLTVSNNPSTNASITIGLDAEKAYQLILEKLGDQILGGIADTIVDSTVQDILDKITTDPSLGLLKAFNNFPITNKIQCNGLFTPRNIETLLGGTEIGKFTVTPKSSGSMFLVSADIIASRMEGGVVLALVREGDSKPYAISYGYSSGVPNLCSLRTRIINTGLTPTTYSLRVGGLESGVVWVNALSNGNDILGITNTSNVSFLEVIPQTNA
# How the values were obtained:
# Assay in all cases: glycan array binding signal (z-score within array); higher = stronger binding
# Settings in all cases: glycan notation: IUPAC condensed, linker removed
# [1] = target: Neu5Ac(a2-6)Gal(b1-4)GlcNAc(b1-2)Man(a1-6)[Man(a1-3)]Man(b1-4)GlcNAc(b1-4)GlcNAc
# Method in brief: (§1)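 The binding signal is a Z-score computed within each array and averaged over linkers. Arrays of the same protein sequence at different concentrations or buffers were also averaged together. Data originate from 3228 arrays in the Consortium for Functional Glycomics database, kept only where the protein sequence was available.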
# [2] = target: Neu5Ac(a2-6)Gal(b1-4)GlcNAc(b1-3)Gal(b1-3)GlcNAc
# Method in brief: as §1
# [3] = target: Neu5Ac(a2-6)Gal(b1-4)GlcNAc(b1-3)Gal(b1-4)GlcNAc
# Method in brief: as §1
# [4] = target: Neu5Ac(a2-6)Gal(b1-4)GlcNAc(b1-3)Gal(b1-4)GlcNAc(b1-3)Gal(b1-4)GlcNAc
# Method in brief: as §1
# [5] = target: Neu5Ac(a2-6)Gal(b1-4)GlcNAc(b1-3)Gal(b1-4)[Fuc(a1-3)]GlcNAc(b1-3)Gal(b1-4)[Fuc(a1-3)]GlcNAc
# Method in brief: as §1
# [6] = target: Neu5Ac(a2-6)Gal(b1-4)GlcNAc(b1-3)GalNAc
# Method in brief: as §1
# [7] = target: Neu5Ac(a2-6)Gal(b1-4)GlcNAc6S
# Method in brief: as §1
# [8] = target: Neu5Ac(a2-6)GalNAc
# Method in brief: as §1
# [9] = target: Neu5Ac(a2-6)GalNAc(b1-4)GlcNAc
# Method in brief: as §1
# [10] = target: Neu5Ac(a2-6)GlcNAc(b1-4)GlcNAc
# Method in brief: as §1
# [11] = target: Neu5Ac(a2-6)GlcNAc(b1-4)GlcNAc(b1-4)GlcNAc
# Method in brief: as §1
# [12] = target: Neu5Ac(a2-8)Neu5Ac
# Method in brief: as §1
# [13] = target: Neu5Ac(a2-8)Neu5Ac(a2-3)Gal(b1-3)GalNAc(b1-4)[Neu5Ac(a2-8)Neu5Ac(a2-3)]Gal(b1-4)Glc
# Method in brief: as §1
# [14] = target: Neu5Ac(a2-8)Neu5Ac(a2-3)Gal(b1-4)Glc
# Method in brief: as §1
# [15] = target: Neu5Ac(a2-8)Neu5Ac(a2-3)[Gal(b1-3)GalNAc(b1-4)]Gal(b1-4)Glc
# Method in brief: as §1
# [16] = target: Neu5Ac(a2-8)Neu5Ac(a2-3)[GalNAc(b1-4)]Gal(b1-4)Glc
# Method in brief: as §1
# [17] = target: Neu5Ac(a2-8)Neu5Ac(a2-8)Neu5Ac
# Method in brief: as §1
# [18] = target: Neu5Ac(a2-8)Neu5Ac(a2-8)Neu5Ac(a2-3)Gal(b1-4)Glc
# Method in brief: as §1
# [19] = target: Neu5Ac(a2-8)Neu5Ac(a2-8)Neu5Ac(a2-3)[GalNAc(b1-4)]Gal(b1-4)Glc
# Method in brief: as §1
# [20] = target: Neu5Ac(a2-8)Neu5Ac(a2-8)Neu5Ac(a2-8)Neu5Ac(a2-3)[GalNAc(b1-4)]Gal(b1-4)Glc
# Method in brief: as §1
# [21] = target: Neu5Ac(b2-6)Gal(b1-4)GlcNAc
# Method in brief: as §1
# [22] = target: Neu5Ac(b2-6)GalNAc
# Method in brief: as §1
# [23] = target: Neu5Ac9Ac(a2-3)Gal(b1-3)GlcNAc
# Method in brief: as §1
# [24] = target: Neu5Ac9Ac(a2-3)Gal(b1-4)GlcNAc
# Method in brief: as §1
# [25] = target: Neu5Ac9Ac(a2-6)Gal(b1-4)GlcNAc
# Method in brief: as §1
# [26] = target: Neu5Gc(a2-3)Gal(b1-3)GlcNAc
# Method in brief: as §1
# [27] = target: Neu5Gc(a2-3)Gal(b1-3)[Fuc(a1-4)]GlcNAc
# Method in brief: as §1
# [28] = target: Neu5Gc(a2-3)Gal(b1-4)Glc
# Method in brief: as §1
# [29] = target: Neu5Gc(a2-3)Gal(b1-4)GlcNAc
# Method in brief: as §1
# [30] = target: Neu5Gc(a2-3)Gal(b1-4)[Fuc(a1-3)]GlcNAc
# Method in brief: as §1
# [31] = target: Neu5Gc(a2-6)Gal(b1-4)GlcNAc
# Method in brief: as §1
# [32] = target: Neu5Gc(a2-6)GalNAc
# Method in brief: as §1
# [33] = target: Neu5Gc(b2-6)Gal(b1-4)GlcNAc
# Method in brief: as §1
binder,measurement,setting,value
B1,glycan array binding signal (z-score),[1],-0.005
same,glycan array binding signal (z-score),[2],-0.316
same,glycan array binding signal (z-score),[3],1.37
same,glycan array binding signal (z-score),[4],-0.565
same,glycan array binding signal (z-score),[5],0.136
same,glycan array binding signal (z-score),[6],-0.403
same,glycan array binding signal (z-score),[7],-0.798
same,glycan array binding signal (z-score),[8],-1.18
same,glycan array binding signal (z-score),[9],0.096
same,glycan array binding signal (z-score),[10],-1.37
same,glycan array binding signal (z-score),[11],-0.842
same,glycan array binding signal (z-score),[12],-0.486
same,glycan array binding signal (z-score),[13],1.02
same,glycan array binding signal (z-score),[14],-0.424
same,glycan array binding signal (z-score),[15],0.121
same,glycan array binding signal (z-score),[16],-0.121
same,glycan array binding signal (z-score),[17],1.11
same,glycan array binding signal (z-score),[18],2.79
same,glycan array binding signal (z-score),[19],-0.269
same,glycan array binding signal (z-score),[20],0.056
same,glycan array binding signal (z-score),[21],-1.25
same,glycan array binding signal (z-score),[22],0.49
same,glycan array binding signal (z-score),[23],2.73
same,glycan array binding signal (z-score),[24],1.72
same,glycan array binding signal (z-score),[25],0.589
same,glycan array binding signal (z-score),[26],0.962
same,glycan array binding signal (z-score),[27],2.46
same,glycan array binding signal (z-score),[28],1.1
same,glycan array binding signal (z-score),[29],0.126
same,glycan array binding signal (z-score),[30],1.36
same,glycan array binding signal (z-score),[31],-1.74
same,glycan array binding signal (z-score),[32],1.37
same,glycan array binding signal (z-score),[33],-1.1

# Given with bars between the fields: part of the list above.
binder | measurement | setting | value
B1 | glycan array binding signal (z-score) | [23] | 2.73
same | glycan array binding signal (z-score) | [24] | 1.72
